Reference: patent US20050186197A1 (published 2005)
For some assays here: Some peptides are written in HELM: one residue between dots, names in brackets for other building blocks, links after the first $. No end group written: not given here.

How the values were obtained:
[1] = general procedure: Fmoc solid-phase peptide synthesis; conditions: whole synthesis, reverse phase HPLC
[2] = peptide made by a vendor (Fmoc solid-phase peptide synthesis); conditions: whole synthesis, reverse phase HPLC

Substance | final HPLC purity [1] [%] | final purity (method not given) [2] [%]
AAGHYY-NH2 | >95 | –
HSAYSDTRRGDYG-NH2 | >95 | –
LRRASLG-NH2 | – | >99
PEPTIDE1{H.S.A.C.S.D.T.R.R.G.D.C.G.[am]}$PEPTIDE1,PEPTIDE1,4:R3-12:R3$$$V2.0 | >90 | –
RRGHYY—NH2 | >95 | –
